Sequences and labels used below:
B1: POP1 (protein, UniProt Q99575 1-1024, looked up)
Ribonucleases P/MRP protein …: MSNAKERKHAKKMRNQPTNVTLSSGFVADRGVKHHSGGEKPFQAQKQEPHPGTSRQRQTRVNPHSLPDPEVNEQSSSKGMFRKKGGWKAGPEGTSQEIPKYITASTFAQARAAEISAMLKAVTQKSSNSLVFQTLPRHMRRRAMSHNVKRLPRRLQEIAQKEAEKAVHQKKEHSKNKCHKARRCHMNRTLEFNRRQKKNIWLETHIWHAKRFHMVKKWGYCLGERPTVKSHRACYRAMTNRCLLQDLSYYCCLELKGKEEEILKALSGMCNIDTGLTFAAVHCLSGKRQGSLVLYRVNKYPREMLGPVTFIWKSQRTPGDPSESRQLWIWLHPTLKQDILEEIKAACQCVEPIKSAVCIADPLPTPSQEKSQTELPDEKIGKKRKRKDDGENAKPIKKIIGDGTRDPCLPYSWISPTTGIIISDLTMEMNRFRLIGPLSHSILTEAIKAASVHTVGEDTEETPHRWWIETCKKPDSVSLHCRQEAIFELLGGITSPAEIPAGTILGLTVGDPRINLPQKKSKALPNPEKCQDNEKVRQLLLEGVPVECTHSFIWNQDICKSVTENKISDQDLNRMRSELLVPGSQLILGPHESKIPILLIQQPGKVTGEDRLGWGSGWDVLLPKGWGMAFWIPFIYRGVRVGGLKESAVHSQYKRSPNVPGDFPDCPAGMLFAEEQAKNLLEKYKRRPPAKRPNYVKLGTLAPFCCPWEQLTQDWESRVQAYEEPSVASSPNGKESDLRRSEVPCAPMPKKTHQPSDEVGTSIEHPREAEEVMDAGCQESAGPERITDQEASENHVAATGSHLCVLRSRKLLKQLSAWCGPSSEDSRGGRRAPGRGQQGLTREACLSILGHFPRALVWVSLSLLSKGSPEPHTMICVPAKEDFLQLHEDWHYCGPQESKHSDPFRSKILKQKEKKKREKRQKPGRASSDGPAGEEPVAGQEALTLGLWSGPLPRVTLHCSRTLLGFVTQGDFSMAVGCGEALGFVSLTGLLDMLSSQPAAQRGLVLLRPPASLQYRFARIAIEV
B2: RRP1B (protein, UniProt Q14684 1-758, looked up)
Ribosomal RNA processing …: MAPAMQPAEIQFAQRLASSEKGIRDRAVKKLRQYISVKTQRETGGFSQEELLKIWKGLFYCMWVQDEPLLQEELANTIAQLVHAVNNSAAQHLFIQTFWQTMNREWKGIDRLRLDKYYMLIRLVLRQSFEVLKRNGWEESRIKVFLDVLMKEVLCPESQSPNGVRFHFIDIYLDELSKVGGKELLADQNLKFIDPFCKIAAKTKDHTLVQTIARGVFEAIVDQSPFVPEETMEEQKTKVGDGDLSAEEIPENEVSLRRAVSKKKTALGKNHSRKDGLSDERGRDDCGTFEDTGPLLQFDYKAVADRLLEMTSRKNTPHFNRKRLSKLIKKFQDLSEGSSISQLSFAEDISADEDDQILSQGKHKKKGNKLLEKTNLEKEKGSRVFCVEEEDSESSLQKRRRKKKKKHHLQPENPGPGGAAPSLEQNRGREPEASGLKALKARVAEPGAEATSSTGEESGSEHPPAVPMHNKRKRPRKKSPRAHREMLESAVLPPEDMSQSGPSGSHPQGPRGSPTGGAQLLKRKRKLGVVPVNGSGLSTPAWPPLQQEGPPTGPAEGANSHTTLPQRRRLQKKKAGPGSLELCGLPSQKTASLKKRKKMRVMSNLVEHNGVLESEAGQPQALGSSGTCSSLKKQKLRAESDFVKFDTPFLPKPLFFRRAKSSTATHPPGPAVQLNKTPSSSKKVTFGLNRNMTAEFKKTDKSILVSPTGPSRVAFDPEQKPLHGVLKTPTSSPASSPLVAKKPLTTTPRRRPRAMDFF
B3: SUCLG2 (protein, UniProt Q96I99 38-432, looked up)
Succinate--CoA ligase …: LNLQEYQSKKLMSDNGVRVQRFFVADTANEALEAAKRLNAKEIVLKAQILAGGRGKGVFNSGLKGGVHLTKDPNVVGQLAKQMIGYNLATKQTPKEGVKVNKVMVAEALDISRETYLAILMDRSCNGPVLVGSPQGGVDIEEVAASNPELIFKEQIDIFEGIKDSQAQRMAENLGFVGPLKSQAADQITKLYNLFLKIDATQVEVNPFGETPEGQVVCFDAKINFDDNAEFRQKDIFAMDDKSENEPIENEAAKYDLKYIGLDGNIACFVNGAGLAMATCDIIFLNGGKPANFLDLGGGVKEAQVYQAFKLLTADPKVEAILVNIFGGIVNCAIIANGITKACRELELKVPLVVRLEGTNVQEAQKILNNSGLPITSAIDLEDAAKKAVASVAKK
B4: DHX8 (protein, UniProt Q14562 1-1220, looked up)
ATP-dependent RNA helicase …: MAVAVAMAGALIGSEPGPAEELAKLEYLSLVSKVCTELDNHLGINDKDLAEFVISLAEKNTTFDTFKASLVKNGAEFTDSLISNLLRLIQTMRPPAKPSTSKDPVVKPKTEKEKLKELFPVLCQPDNPSVRTMLDEDDVKVAVDVLKELEALMPSAAGQEKQRDAEHRDRTKKKKRSRSRDRNRDRDRDRERNRDRDHKRRHRSRSRSRSRTRERNKVKSRYRSRSRSQSPPKDRKDRDKYGERNLDRWRDKHVDRPPPEEPTIGDIYNGKVTSIMQFGCFVQLEGLRKRWEGLVHISELRREGRVANVADVVSKGQRVKVKVLSFTGTKTSLSMKDVDQETGEDLNPNRRRNLVGETNEETSMRNPDRPTHLSLVSAPEVEDDSLERKRLTRISDPEKWEIKQMIAANVLSKEEFPDFDEETGILPKVDDEEDEDLEIELVEEEPPFLRGHTKQSMDMSPIKIVKNPDGSLSQAAMMQSALAKERRELKQAQREAEMDSIPMGLNKHWVDPLPDAEGRQIAANMRGIGMMPNDIPEWKKHAFGGNKASYGKKTQMSILEQRESLPIYKLKEQLVQAVHDNQILIVIGETGSGKTTQITQYLAEAGYTSRGKIGCTQPRRVAAMSVAKRVSEEFGCCLGQEVGYTIRFEDCTSPETVIKYMTDGMLLRECLIDPDLTQYAIIMLDEAHERTIHTDVLFGLLKKTVQKRQDMKLIVTSATLDAVKFSQYFYEAPIFTIPGRTYPVEILYTKEPETDYLDASLITVMQIHLTEPPGDILVFLTGQEEIDTACEILYERMKSLGPDVPELIILPVYSALPSEMQTRIFDPAPPGSRKVVIATNIAETSLTIDGIYYVVDPGFVKQKVYNSKTGIDQLVVTPISQAQAKQRAGRAGRTGPGKCYRLYTERAYRDEMLTTNVPEIQRTNLASTVLSLKAMGINDLLSFDFMDAPPMETLITAMEQLYTLGALDDEGLLTRLGRRMAEFPLEPMLCKMLIMSVHLGCSEEMLTIVSMLSVQNVFYRPKDKQALADQKKAKFHQTEGDHLTLLAVYNSWKNNKFSNPWCYENFIQARSLRRAQDIRKQMLGIMDRHKLDVVSCGKSTVRVQKAICSGFFRNAAKKDPQEGYRTLIDQQVVYIHPSSALFNRQPEWVVYHELVLTTKEYMREVTTIDPRWLVEFAPAFFKVSDPTKLSKQKKQQRLEPLYNRYEEPNAWRISRAFRRR
B5: PHGDH (protein, UniProt O43175 2-533, looked up)
D-3-phosphoglycerate …: AFANLRKVLISDSLDPCCRKILQDGGLQVVEKQNLSKEELIAELQDCEGLIVRSATKVTADVINAAEKLQVVGRAGTGVDNVDLEAATRKGILVMNTPNGNSLSAAELTCGMIMCLARQIPQATASMKDGKWERKKFMGTELNGKTLGILGLGRIGREVATRMQSFGMKTIGYDPIISPEVSASFGVQQLPLEEIWPLCDFITVHTPLLPSTTGLLNDNTFAQCKKGVRVVNCARGGIVDEGALLRALQSGQCAGAALDVFTEEPPRDRALVDHENVISCPHLGASTKEAQSRCGEEIAVQFVDMVKGKSLTGVVNAQALTSAFSPHTKPWIGLAEALGTLMRAWAGSPKGTIQVITQGTSLKNAGNCLSPAVIVGLLKEASKQADVNLVNAKLLVKEAGLNVTTSHSPAAPGEQGFGECLLAVALAGAPYQAVGLVQGTTPVLQGLNGAVFRPEVPLRRDLPLLLFRTQTSDPAMLPTMIGLLAEAGVRLLSYQTSLVSDGETWHVMGISSLLPSLEAWKQHVTEAFQFHF
B6: HNRNPA2B1 (protein, UniProt P22626 1-353, looked up)
Heterogeneous nuclear …: MEKTLETVPLERKKREKEQFRKLFIGGLSFETTEESLRNYYEQWGKLTDCVVMRDPASKRSRGFGFVTFSSMAEVDAAMAARPHSIDGRVVEPKRAVAREESGKPGAHVTVKKLFVGGIKEDTEEHHLRDYFEEYGKIDTIEIITDRQSGKKRGFGFVTFDDHDPVDKIVLQKYHTINGHNAEVRKALSRQEMQEVQSSRSGRGGNFGFGDSRGGGGNFGPGPGSNFRGGSDGYGSGRGFGDGYNGYGGGPGGGNFGGSPGYGGGRGGYGGGGPGYGNQGGGYGGGYDNYGGGNYGSGNYNDFGNYNQQPSNYGPMKSGNFGGSRNMGGPYGGGNYGPGGSGGSGGYGGRSRY
B7: HNRNPH1 (protein, UniProt P31943 1-449, looked up)
Heterogeneous nuclear …: MMLGTEGGEGFVVKVRGLPWSCSADEVQRFFSDCKIQNGAQGIRFIYTREGRPSGEAFVELESEDEVKLALKKDRETMGHRYVEVFKSNNVEMDWVLKHTGPNSPDTANDGFVRLRGLPFGCSKEEIVQFFSGLEIVPNGITLPVDFQGRSTGEAFVQFASQEIAEKALKKHKERIGHRYIEIFKSSRAEVRTHYDPPRKLMAMQRPGPYDRPGAGRGYNSIGRGAGFERMRRGAYGGGYGGYDDYNGYNDGYGFGSDRFGRDLNYCFSGMSDHRYGDGGSTFQSTTGHCVHMRGLPYRATENDIYNFFSPLNPVRVHIEIGPDGRVTGEADVEFATHEDAVAAMSKDKANMQHRYVELFLNSTAGASGGAYEHRYVELFLNSTAGASGGAYGSQMMGGMGLSNQSSYGGPASQQLSGGYGGGYGGQSSMSGYDQVLQENSSDFQSNIA

The first data set relates to mSWI/SNF complexes. The data set is described as follows: mSWI/SNF complex purification with HA-tagged baits and mass spectrometry (peptide counts). Also noted: species or system human. The following applies: 293_HA-BRD7: HA-BRD7 bait purification, total peptide count per co-purified protein.
The molecule B1 came in with a Total of 10.
The same measure, in the same setting: in the case of B2 it was 10; in that of B3, 10; in that of B4, 10.
The same measure, in the same setting: in the case of B5 it was 7.
The same measure, in the same setting: in the case of B6 it was 12; in that of B7, 10.

The same data set, now with this note: 293_HA-BRD7: HA-BRD7 bait purification, unique peptide count per co-purified protein.
B1 gave a Unique of 10.
On the same count and under the same terms, under B2 stands 10; under B3, 10.
Still for that read-out and setting: in the case of B4 it was 10; in that of B5, 7.
The same measure, in the same setting: under B6 stands 9; under B7, 10.

Staying with this data set, now noted: 293_HA-DPF2 purification, total peptides.
B7 displayed a Total of 2.

Still in this data set, the particulars now being: 293_HA-DPF2 purification, unique peptides.
As to B7, the Unique is listed as 2.

Staying with this data set, now noted: total peptide count of the co-purified protein; 293_HA-BRD9 (HA-BRD9 bait, mass spectrometry), Table 3b.
The molecule B5 yielded a Total of 1.

The data set is the same for the next values; noted with them: unique peptide count of the co-purified protein; 293_HA-BRD9 (HA-BRD9 bait, mass spectrometry), Table 3b.
Take B5: the Unique turned out to be 1.

For the origin of these results see patent US12729225B2, “Non-canonical SWI/SNF complex and uses thereof” (Dana-Farber Cancer Institute, Inc., priority 2018, dated 2026).
